## Percent effect of library compounds

Chains of the proteins cited; added tags and fusions are not shown. Residues count along the entry.
UniProt P9WPC5, whole entry: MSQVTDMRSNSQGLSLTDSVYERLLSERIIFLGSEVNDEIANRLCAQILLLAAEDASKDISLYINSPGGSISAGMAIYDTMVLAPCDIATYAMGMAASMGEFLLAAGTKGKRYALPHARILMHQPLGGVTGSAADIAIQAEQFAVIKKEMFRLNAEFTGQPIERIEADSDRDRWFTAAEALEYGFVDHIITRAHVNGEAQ
UniProt P9WPC3, whole entry partner: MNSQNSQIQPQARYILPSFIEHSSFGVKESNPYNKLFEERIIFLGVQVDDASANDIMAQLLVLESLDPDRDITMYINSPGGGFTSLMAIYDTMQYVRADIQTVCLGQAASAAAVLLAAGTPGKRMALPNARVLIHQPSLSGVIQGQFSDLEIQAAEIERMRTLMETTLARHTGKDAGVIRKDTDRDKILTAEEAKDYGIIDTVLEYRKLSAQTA
UniProt P9WNZ1, whole entry: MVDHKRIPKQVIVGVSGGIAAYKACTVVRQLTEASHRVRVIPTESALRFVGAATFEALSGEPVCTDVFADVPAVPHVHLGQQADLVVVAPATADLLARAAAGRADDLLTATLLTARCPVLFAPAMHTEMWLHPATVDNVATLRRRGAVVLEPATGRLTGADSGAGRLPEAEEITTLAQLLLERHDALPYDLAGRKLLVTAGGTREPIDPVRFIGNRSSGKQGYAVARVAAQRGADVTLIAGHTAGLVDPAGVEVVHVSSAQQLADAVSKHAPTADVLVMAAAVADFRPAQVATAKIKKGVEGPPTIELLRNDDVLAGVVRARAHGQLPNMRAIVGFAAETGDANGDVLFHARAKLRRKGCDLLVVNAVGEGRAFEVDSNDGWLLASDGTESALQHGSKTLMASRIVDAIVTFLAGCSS
UniProt Q8IDJ8, 1-583: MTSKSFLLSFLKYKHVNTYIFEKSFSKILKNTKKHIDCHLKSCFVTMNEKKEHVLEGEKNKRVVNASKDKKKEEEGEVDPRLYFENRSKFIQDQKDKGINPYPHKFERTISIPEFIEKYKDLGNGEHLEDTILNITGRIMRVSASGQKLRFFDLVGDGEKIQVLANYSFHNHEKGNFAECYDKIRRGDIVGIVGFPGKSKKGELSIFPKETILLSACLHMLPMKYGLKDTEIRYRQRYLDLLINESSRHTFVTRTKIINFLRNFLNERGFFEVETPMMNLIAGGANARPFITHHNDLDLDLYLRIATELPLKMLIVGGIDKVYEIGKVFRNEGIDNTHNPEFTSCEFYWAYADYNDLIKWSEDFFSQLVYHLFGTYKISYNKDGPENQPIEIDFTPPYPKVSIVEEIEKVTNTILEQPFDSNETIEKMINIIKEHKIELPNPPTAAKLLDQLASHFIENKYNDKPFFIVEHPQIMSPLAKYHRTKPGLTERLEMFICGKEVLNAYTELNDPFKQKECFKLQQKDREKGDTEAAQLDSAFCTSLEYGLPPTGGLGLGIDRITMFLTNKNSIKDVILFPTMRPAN

From ChEMBL document CHEMBL3988442, “University of Dundee, Small-Polar-MMV Screening Library” (2021).

Results are given as percent effect. The record does not define 0% and 100%; most values in the screen are far below 50% and negative numbers occur (in some assays of this library far below -100). Compounds were drawn at random from those tested, without regard to their results. Two or more numbers in one place are separate tests of the same structure; such repeats can differ widely. A dash means the value is not listed here; it may have been measured.

ClpP1P2: 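ClpP1P2, Mycobacterium tuberculosis (UniProt P9WPC5 and UniProt P9WPC3). Protease assay of ClpP1P2, read by the AMC dye that it sets free. Concentration: 50 µM. Higher reads as stronger inhibition, judged from the few compounds that gave an IC50. Most other retested compounds had strongly negative values. Size under these conditions: about 69,000 compounds, about 10 of them at 50% or above in at least one test.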
CoaBC: 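Enzyme assay of CoaBC with a phosphate dye (Biomol Green) read at 650 nm. Target: Coenzyme A biosynthesis protein CoaBC, Mycobacterium tuberculosis (UniProt P9WNZ1). Compounds at 30 µM. Higher reads as stronger inhibition, judged from the few compounds that gave an IC50. Most strong results did not repeat in a second test. Of about 67,000 compounds tested this way, about 40 (0.06%) reached 50% or more in at least one test.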
PfKRS1: 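Enzyme assay of the cytosolic lysyl-tRNA synthetase in 384-well plates, read by luminescence. Target: Lysine-tRNA ligase, Plasmodium falciparum 3D7 (UniProt Q8IDJ8). Concentration: 30 µM. Higher reads as stronger inhibition, judged from the few compounds that gave an IC50. About 69,000 compounds were tested under these conditions; 0.071% (about 49) showed 50% or more at least once.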
Leishmania in macrophages: 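Cell assay of Leishmania donovani living inside macrophages; the read-out is not stated. Concentration: 30 µM. The record gives no direction; compounds that gave an IC50 in retests scored well above the rest, so higher reads as stronger inhibition. Size under these conditions: about 69,000 compounds, about 1,000 of them at 50% or above in at least one test.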

structure	ClpP1P2	CoaBC	PfKRS1	Leishmania in macrophages
CC(C)c1cc(=O)[nH]c(-c2ccccc2CN2CCC(C)(C)C2)n1	3.517	7.2	-0.658	-173.9
CCc1ccc(C(=O)N2CCCC3(CCCC(=O)N3C)C2)cc1 (centres unmarked)	-6.462	-1.882	5.653	12.8
CCOCC1CN(S(=O)(=O)c2cccc(C)c2)Cc2nccn2C1 (centres unmarked)	2.568	1.856	2.316	30.81
CCOc1cc(/C=C/c2ncc(C(=O)O)s2)cc(Br)c1OC	-160.4	-5.59	1.212	24.42
COCCNc1ccc(CNCc2cnc3nc(C)cc(C)n23)cc1	10.97	3.38	1.065	17.83
CC(=O)Nn1c(C)cc(CN2CCCN(Cc3ccncc3)CC2)c1C	10.03	-14.46	0.02292	18.39
Cc1c2ncn(CC(=O)NC(C)C)c(=O)c2nn1C	7.597	6.11	0.7772	-15.05
O=C(N1CCCC1)N1CCC2(CC1)COCCN(Cc1cccnc1)C2	-11.17	3.585	0.09872	-
Cc1cc(=O)[nH]c(=O)n1Cc1ccccc1	-11.83	3.406	0.7856	14.81
c1cnc(N2CCCC3(CCN(CC4CCOC4)CC3)C2)nc1 (centres unmarked)	2.824	-16.35	7.759	-
O=C(C1CC=CC1)N1CCC2(CCN(Cc3ccccn3)C2=O)C1.O=C(O)C(F)(F)F (centres unmarked)	-	-	-	30.32
CCc1nnc(C(C)N2CCCN(C(=O)OCC(C)C)CC2)o1 (centres unmarked)	-6.754	1.786	-4.748	12.16
O=C(CCc1ccc(=O)[nH]n1)N1CCCC(COc2ccc(F)cc2)C1 (centres unmarked)	-7.064	-8.439	4.937	29.87
CCc1nc(C)sc1CN1CC[C@](O)(CC)[C@H](O)C1	-5.979	5.097	3.608	-16.25
CN(C)c1cccc(C2CCCN2Cc2nnnn2C2CC2)c1 (centres unmarked)	-17.59	0.5102	2.286	-2.162
CCc1ccccc1OCCN1CC[C@@]2(O)CCNC[C@H]2C1	-18.66	-49.46	5.912	-
COCCn1cnc2ccc(NC(=O)C(C)C)cc2c1=O	-3.02	1.094	2.966	14.15
CCc1noc(C(C)N(C)CC(=O)Nc2ccc(Cl)c(C(F)(F)F)c2)n1 (centres unmarked)	-8.101	4.738	3.35	-17.23
c1ccc(CN2CCc3ncnc(N4CCCC4)c3CC2)nc1	5.355	3.171	5.013	-
O=C(O)c1cccc(S(=O)(=O)N2CCOc3ccccc32)c1	-4.005	4.474	1.238	14.21
Cc1nc(CN2CCN(C(C)c3nc(C4CC4)no3)CC2)no1 (centres unmarked)	-15.57	-7.239	0.2144	15.36
CO[C@@H]1CCN(c2ncc(F)cn2)[C@@H]2CN(Cc3cccnc3)C[C@@H]21	-7.675	-9.091	0.8747	-
COCCN1CC2(CCN(Cc3ccco3)CC2)c2ccccc21	-2.95	-	7.488	11.18
CN1CCN(Cc2noc(CCc3nc(-c4ccccc4)no3)n2)CC1	11.17	-1.512	6.08	0.6583
Cc1ccc(Cl)cc1NCc1nc2[nH]c(C)c(C)c(=O)n2n1	-9.127	3.027	3.838	-2.234
Cc1ccc2c(c1)c(CNC(=O)C1CC(=O)N(C3CCCC3)C1)nn2C (centres unmarked)	5.635	-11.73	-0.7863	8.381
Cc1c[nH]nc1C1CCN(C(=O)C2CCCC2)C1 (centres unmarked)	-7.869	-4.429	0.6712	-28.74
O=C(c1ccc(SC(F)F)cc1)N1CCOCC1c1ncon1 (centres unmarked)	-10.64	3.586	0.3381	15.44
CSC(C)C(=O)N1CCCN(c2ncccc2C#N)CC1 (centres unmarked)	-45.82	1.66	-2.141	-17.85
CCNC(=O)N1CCC(NC(=O)NCCc2cc3ccccc3o2)C1 (centres unmarked)	-12.08	0.2481	-2.6	12.72
Cc1ccc(CNc2cc3[nH]c(O)nc3cc2C)cc1	4.537	-0.2237	2.858	-13
COc1ccc(C2CCCN2C(=O)c2cc3c([nH]c2=O)CCC3)cc1 (centres unmarked)	-9.274	5.176	6.37	22.34
COc1ccc2nnc(C(=O)NC3CCCC3)nc2c1	23.04	-7.83	-2.309	8.289
Cc1ccsc1C(=O)Nc1ccc(N2CCC(O)CC2)c(C#N)c1	-21.88	8.013	5.368	34.82
COc1c(C2CCCN2C(=O)c2sccc2C#N)c(C)nn1C (centres unmarked)	-14.09	-0.2445	-2.046	10.5
Fc1ccc(CC2CCN(Cc3cscn3)CC2)cc1	-5.154	-0.4545	-1.19	3.166
CNC(=O)CN1CCOCC12CCN(CCc1ccccc1)CC2	2.259	5.071	-3.671	-
[H][C@]12CN(Cc3ccc[nH]3)C[C@@]1([H])OCCN(C(=O)c1ccccc1)C2	-	-	-	-1.388
Cn1cc(NC(=O)N2CCN(Cc3cscn3)CC2)ccc1=O	1.085	9.339	9.694	-5.668
CN(C1CCN(c2ccccn2)CC1)S(=O)(=O)c1ccccc1F	-3.286	-3.34	3.469	0.9606
CC(NS(C)(=O)=O)C(=O)N(C)Cc1csc(-c2ccccc2)n1 (centres unmarked)	-2.9	1.238	2.424	13.48
CSc1ccc(NC(=O)Cn2cc(NC(C)=O)cn2)cc1	-10.53	-0.6289	7.194	-2.92
CN(Cc1cn2c(n1)CN(CC1CC1)CC2)Cc1ccco1	8.958	1.036	8.234	-
COC(=O)c1ccc2c(c1)CCCN2S(=O)(=O)c1cn(C)c(C)n1	-2.423	3.777	2.859	24.09
CCN1CCN(c2ncc(-c3cc(C)no3)c(-c3ccco3)n2)CC1	-9.072	2.67	4.239	-9.602 and -3.298
CNc1cccc(C2CCCN(C(=O)c3cnccn3)C2)n1 (centres unmarked)	1.684	-0.7353	3.444	1.594
NC(=O)C(NC1CCN(CC2CCCCC2)CC1)c1ccccc1 (centres unmarked)	6.062	5.276	4.619	18.71
CC(C)c1nnc(NC(=O)NC2CCN(Cc3ccccc3)C2)s1 (centres unmarked)	-4.667	3.421	0.3949	-7.708
COCc1ccc(CNC(=O)CN2CCc3ccccc32)cc1	-13.3	1.282	9.604	16.77
O=C1CN(C(=O)c2cccc(OCc3cscn3)c2)CCN1	9.544	7.632	-0.4886	6.972
CN(C)c1nc2n(c(=O)n1)CCN2C(=O)Nc1ccc(Cl)c(Cl)c1	-11.93	0.4673	2.877	-3.645

5 of the entries, repeated:

CNC(=O)CN1CCOCC12CCN(CCc1ccccc1)CC2 gave ClpP1P2: 2.259%; CoaBC: 5.071%; PfKRS1: -3.671%.
CC(=O)Nn1c(C)cc(CN2CCCN(Cc3ccncc3)CC2)c1C gave ClpP1P2: 10.03%; CoaBC: -14.46%; PfKRS1: 0.02292%; Leishmania in macrophages: 18.39%.
CC(C)c1cc(=O)[nH]c(-c2ccccc2CN2CCC(C)(C)C2)n1 gave ClpP1P2: 3.517%; CoaBC: 7.2%; PfKRS1: -0.658%; Leishmania in macrophages: -173.9%.
CCOCC1CN(S(=O)(=O)c2cccc(C)c2)Cc2nccn2C1 (centres unmarked) gave ClpP1P2: 2.568%; CoaBC: 1.856%; PfKRS1: 2.316%; Leishmania in macrophages: 30.81%.
CSC(C)C(=O)N1CCCN(c2ncccc2C#N)CC1 (centres unmarked) gave ClpP1P2: -45.82%; CoaBC: 1.66%; PfKRS1: -2.141%; Leishmania in macrophages: -17.85%.